These are yes or no findings as the source states them, for the method shown. Some results given as binding are weak or reduced against the parent protein; the word gives no strength.
B1: LP19 (SR16983-R4-P1-B06) (VHH, not shown: small tags and cut ends)
VHH: QLQLVESGGGEVQAGESLRLSCAASGSTFSINVFAWYRDYPGKQRELVAVIGRSGTPRYADSVKGRFTISRDNAKNTVYLQMNSLEPEDTAVYYCHLGDTWGQGTQVTVSS
B2: LP8 (SR16983-R3-P3-A04) (VHH, not shown: small tags and cut ends)
VHH: QLQLVESGGGLVEAGGSLRLSCAASGRTFSSGALGWFRQAPGKEREFVATIRWSDERTQYSEFVKGRFTISRDNAKNTVYLQMNNLQPEDTAVYYCRSTVGNLLYWGQGTQVTVSS
B3: LP2 (SR16983-R2-P3-H10) (VHH, not shown: small tags and cut ends)
VHH: QVQLVESGGGLVQAGGSLRLSCAASGRPISAYTWAWFRQAPGKEREFVAAITSSAGTTYYADSVRGRFTISRDNAENTVYLRMNTLKPEDTAVYYCAADDQGDNWYDHWGQGTQVTVSS
B4: LP15 (SR16983-R3-P5-H05) (VHH, not shown: small tags and cut ends)
VHH: QLQLVESGGGLVQAGGSLRLSCAASGTTFSFVYMGWYRQAPGNQRDLVARISSDGSTNYADSVKGRFTISGDNAKNTVYLQMNSLKPEDTARYYCFWNGHTNKWGQGTQVTVSS
B5: LP3 (SR16983-R2-P4-E09) (VHH, not shown: small tags and cut ends)
VHH: QVQLVESGGGLVQPGGSLTLSCAASGTIESINDMGWYRQAPGKQRELVAAITSGGSTNYADSVKGRFTISRDNAKNTVYLQMNSLKPEDTAVYYCNAEVKRHYYYDSAGYRYWGQGTQVTVSS
B6: LP13 (SR16983-R3-P3-G08) (VHH, not shown: small tags and cut ends)
VHH: QLQLVESGGGLVQAGGSLRLSCVASGTTFTIEDIGWHRQAPGKQLELVAVSRGGGNADYSDSVKGRFTISRDNAKTTVYLQMSSLKPEDTAVYYCIAKTKATTKWGRGIQVTVSS
B7: LP18 (SR16983-R4-P1-A11) (VHH, not shown: small tags and cut ends)
VHH: QLQLVESGGGLVQPGGSLRLSCAASGFTFSTKWMYWVRQGPGKGLERVAAIDAGGTSTYYADSVKGRFTISRDNSENTVYLQMNSLESADTAVYYCARSEGGLFRGRGTQVTVSA
B8: LP7 (SR16983-R3-P2-H08) (VHH, not shown: small tags and cut ends)
VHH: EVQLVESGGGLVQAGGSLRLSCAASGTTFDMNSMGWYRQGPGFKRELVATISMGGDTNYADSVKGRFTISRANAKNTVYMQMNSLKPEDTAVYYCNAERIWPNRRTFWGQGTQVTVSS
B9: LP12 (SR16983-R3-P3-F06) (VHH, not shown: small tags and cut ends)
VHH: QLQLVESGGGLVQAGDSLRLSCTSSGLTASTYAMAWFRQAPGKEREFVAVVDWKGDTTYANSVKGRFTLSRDNGKNTNYLQMNSLQPEDTALYYCAARGSPGYVARLYAHWGRGTQVTVSS
B10: LP10 (SR16983-R3-P3-E06) (VHH, not shown: small tags and cut ends)
VHH: QVQLVESGGGLVQAGGSLRLSCAASGTIESINDMGWYRQAPGKQRELVATVSSSGMTNYADSAKGRFTISRDNAKNTMYLQMNSLKPEDTAVYYCKAHISRSYYYDSLGYDYWGQGTQVTVSS

By UniProt entry, the sequences of proteins in these tests, tags left out. Where a name states a change or a piece, a line headed by the entry shows the natural chain unless it says otherwise.
UniProt P04070: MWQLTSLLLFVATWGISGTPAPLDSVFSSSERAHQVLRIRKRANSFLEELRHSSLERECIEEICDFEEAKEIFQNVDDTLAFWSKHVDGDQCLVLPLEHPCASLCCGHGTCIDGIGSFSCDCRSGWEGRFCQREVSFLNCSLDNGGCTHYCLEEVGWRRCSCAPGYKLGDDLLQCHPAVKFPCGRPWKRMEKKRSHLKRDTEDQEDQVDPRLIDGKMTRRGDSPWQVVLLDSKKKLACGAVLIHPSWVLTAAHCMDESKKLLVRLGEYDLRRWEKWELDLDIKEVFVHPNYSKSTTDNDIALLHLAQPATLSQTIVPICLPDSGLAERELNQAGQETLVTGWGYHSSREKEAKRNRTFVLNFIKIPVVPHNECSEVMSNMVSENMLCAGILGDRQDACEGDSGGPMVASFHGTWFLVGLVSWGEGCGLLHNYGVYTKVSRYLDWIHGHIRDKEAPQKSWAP

Molecular target: human activated protein C (APC) (human) (UniProt P04070)
Test: ELISA, APC coated at 10 µg/mL, nanobody 2 µg/mL, HRP-anti-V5, n=3

binding, binds:
B1, B2, B3, B4, B5, B6, B7, B8, B9, B10

Molecular target: human activated protein C (APC) (human) (UniProt P04070)
Test: ELISA screen, APC-coated wells, OD450, n=2 [Continued]

binding, binds:
B5, B6, B7, B8, B9, B10

Molecular target: human activated protein C (APC) (human) (UniProt P04070)
Test: ELISA screen, APC-coated wells, OD450, n=2

binding, binds:
B1, B2, B3, B4

Molecular target: human activated protein C (APC) (human) (UniProt P04070)
Test: ELISA, coated APC

binding, binds:
B1, B2, B3, B4, B5, B6, B7, B8, B9, B10

Molecular target: human activated protein C (APC) (human) (UniProt P04070)
Test: ELISA

binding, binds:
B1, B2, B3, B4, B5, B6, B7, B8, B9, B10

Molecular target: human activated protein C (APC) (human) (UniProt P04070)
Test: BLI sandwich binning

binding, binds:
B8

Source: US20250163183A1
